These are yes or no findings as the source states them, for the method shown. Binding calls can cover weak binding; strength is not graded here.
B1: humanized A69 antibody (hA69a) (antibody, human IgG4, V domains shown)
VH: QVQLVQSGAEVKKPGSSVKVSCKASGGTFSDYYMHWVRQAPGQGLEWMGYINPSSGYTKYNRKFRDRVTITADKSTSTAYMELSSLRSEDTAVYYCARGGNGYYLDYWGQGTTVTVSS
VL: DIVMTQSPSSLSASVGDRVTITCKASQNVGTAVAWYQQKPGKAPKLLIYSASYRYSGVPSRFSGSRYGTDFTLTISSLQPEDLATYYCQQYSNYITFGGGTKVEIK
B2: hA69-PF (humanized A69 antibody homodimer) (antibody, human IgG4, V domains shown)
VH: EVQLVQSGAEVVKPGSSVKVSCTASGYTFSDYYMHWVRQAPGEGLEWMGYINPSSGYTKYNRKFRDRVTITADKSTSTAYMELSSLRSEDTAVYYCARGGLGYYLDYWGEGTTVTVSS
VL: DIVMTQSPSSLSASVGDRVTITCKASQNVGTAVAWYQQKPGKAPKLLIYSASYRYSGVPSRFSGSRYGTDFTLTISSLQPEDLATYYCQQYSNYITFGQGTKVEIK
B3: hA69-N97R (modified form of humanized A69 antibody) (antibody, V domains shown)
VH: QVQLVQSGAEVKKPGSSVKVSCKASGGTFSDYYMHWVRQAPGQGLEWMGYINPSSGYTKYNRKFRDRVTITADKSTSTAYMELSSLRSEDTAVYYCARGGRGYYLDYWGQGTTVTVSS
VL: DIVMTQSPSSLSASVGDRVTITCKASQNVGTAVAWYQQKPGKAPKLLIYSASYRYSGVPSRFSGSRYGTDFTLTISSLQPEDLATYYCQQYSNYITFGGGTKVEIK
modifications: N-terminal glutamine assumed to be pyroglutamylated (Pyr(Q) at H1)
B4: hA69-p18 (modified form of humanized A69 antibody) (antibody, V domains shown)
VH: QVQLVQSGAEVKKPGSSVKVSCKASGGTFSDYYMHWVRQAPGEGLEWMGYINPSSGYTKYNRKFRDRVTITADKSTSTAYMELSSLRSEDTAVYYCARGGNGYYLDYWGEGTTVTVSS
VL: DIVMTQSPSSLSASVGDRVTITCKASQNVGTAVAWYQQKPGKAPKLLIYSASYRYSGVPSRFSGSRYGTDFTLTISSLQPEDLATYYCQQYSNYITFGGGTKVEIK
modifications: N-terminal glutamine assumed to be pyroglutamylated (Pyr(Q) at H1)

Amino acid sequences for entries named in this document (tags omitted). A change or cut given only in a name is not applied to a line headed by its entry.
UniProt P00740: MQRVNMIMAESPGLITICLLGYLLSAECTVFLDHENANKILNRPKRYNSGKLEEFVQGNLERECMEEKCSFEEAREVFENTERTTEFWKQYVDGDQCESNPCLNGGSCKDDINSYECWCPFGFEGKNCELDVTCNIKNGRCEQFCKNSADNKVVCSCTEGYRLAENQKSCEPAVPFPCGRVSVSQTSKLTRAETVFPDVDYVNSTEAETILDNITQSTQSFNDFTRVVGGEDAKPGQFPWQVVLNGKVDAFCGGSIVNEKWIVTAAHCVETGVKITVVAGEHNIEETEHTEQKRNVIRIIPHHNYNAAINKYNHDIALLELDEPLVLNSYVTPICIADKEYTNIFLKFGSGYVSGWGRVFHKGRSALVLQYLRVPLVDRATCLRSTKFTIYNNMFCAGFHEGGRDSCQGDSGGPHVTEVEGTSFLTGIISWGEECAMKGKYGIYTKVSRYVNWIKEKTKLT

Tests used:
[1] = target: Factor IXaβ (Enzyme Research Laboratories) (UniProt P00740); assay: ELISA, Factor IXaβ coated at 1 µg/ml, absorbance at 405 nm
[2] = target: Factor IXaβ (Enzyme Research Laboratories) (UniProt P00740); assay: ELISA, Factor IXa coated on plate (Fig. 5 legend)
[3] = target: Factor IXaβ (Enzyme Research Laboratories) (UniProt P00740); assay: ELISA, Factor IXa coated at 1 µg/ml, anti-human IgG4 detection, absorbance at 650 nm
[4] = target: Factor IXaβ (Enzyme Research Laboratories) (UniProt P00740); assay: ELISA, Factor IXaβ / Factor IXa coated at 1 µg/ml (both procedures of Example 7)

Binder | binding [1] | binding [2] | binding [3] | binding [4]
B1 | binds | binds |  | 
B2 |  | binds | binds | 
B3 |  | binds |  | binds
B4 |  | binds | binds | 
